For this data set, the target named is T1, NcrB (His6-NcrB) (Leptospirillum ferriphilum UBK03) (UniProt Q06VT2).
T1 sequence (looked up): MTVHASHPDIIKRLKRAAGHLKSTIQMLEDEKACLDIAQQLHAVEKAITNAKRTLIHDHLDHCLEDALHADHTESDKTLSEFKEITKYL
The data set can be described thus: competition with a labelled probe. The following applies: 0.8 uM NcrB, unlabeled competitor reduces binding to labeled pncrA; EMSA: 10 mM Tris pH 7.5, 50 mM NaCl, 1 mM DTT, 0.25% Tween 20, 5 mM MgCl2, 1 ug poly(dI-dC), 20 uL, 37 C 20 min; recombinant protein; residues 1-89; protein details: N-terminal His6 (pET-30a(+), BamHI-HindIII). In general terms: Mobility shift assays separate free from complexed probe on a gel.

Construct, isoform or probe ends are uncertain for at least one entry. Where a protein sequence is shown, tags need not be part of it.

Consider “ATCCCCCTGGGGGGGAT (double strand) [17-bp inverted repeat (p1p17)]”, for which the binding result is on record as “binds”.

(Values after paper PMC3046157.)
